Results on three molecules are retold here after PMC10378556.

The chains behind the UniProt entries cited, without tags or fusion partners.
UniProt A5YKK6: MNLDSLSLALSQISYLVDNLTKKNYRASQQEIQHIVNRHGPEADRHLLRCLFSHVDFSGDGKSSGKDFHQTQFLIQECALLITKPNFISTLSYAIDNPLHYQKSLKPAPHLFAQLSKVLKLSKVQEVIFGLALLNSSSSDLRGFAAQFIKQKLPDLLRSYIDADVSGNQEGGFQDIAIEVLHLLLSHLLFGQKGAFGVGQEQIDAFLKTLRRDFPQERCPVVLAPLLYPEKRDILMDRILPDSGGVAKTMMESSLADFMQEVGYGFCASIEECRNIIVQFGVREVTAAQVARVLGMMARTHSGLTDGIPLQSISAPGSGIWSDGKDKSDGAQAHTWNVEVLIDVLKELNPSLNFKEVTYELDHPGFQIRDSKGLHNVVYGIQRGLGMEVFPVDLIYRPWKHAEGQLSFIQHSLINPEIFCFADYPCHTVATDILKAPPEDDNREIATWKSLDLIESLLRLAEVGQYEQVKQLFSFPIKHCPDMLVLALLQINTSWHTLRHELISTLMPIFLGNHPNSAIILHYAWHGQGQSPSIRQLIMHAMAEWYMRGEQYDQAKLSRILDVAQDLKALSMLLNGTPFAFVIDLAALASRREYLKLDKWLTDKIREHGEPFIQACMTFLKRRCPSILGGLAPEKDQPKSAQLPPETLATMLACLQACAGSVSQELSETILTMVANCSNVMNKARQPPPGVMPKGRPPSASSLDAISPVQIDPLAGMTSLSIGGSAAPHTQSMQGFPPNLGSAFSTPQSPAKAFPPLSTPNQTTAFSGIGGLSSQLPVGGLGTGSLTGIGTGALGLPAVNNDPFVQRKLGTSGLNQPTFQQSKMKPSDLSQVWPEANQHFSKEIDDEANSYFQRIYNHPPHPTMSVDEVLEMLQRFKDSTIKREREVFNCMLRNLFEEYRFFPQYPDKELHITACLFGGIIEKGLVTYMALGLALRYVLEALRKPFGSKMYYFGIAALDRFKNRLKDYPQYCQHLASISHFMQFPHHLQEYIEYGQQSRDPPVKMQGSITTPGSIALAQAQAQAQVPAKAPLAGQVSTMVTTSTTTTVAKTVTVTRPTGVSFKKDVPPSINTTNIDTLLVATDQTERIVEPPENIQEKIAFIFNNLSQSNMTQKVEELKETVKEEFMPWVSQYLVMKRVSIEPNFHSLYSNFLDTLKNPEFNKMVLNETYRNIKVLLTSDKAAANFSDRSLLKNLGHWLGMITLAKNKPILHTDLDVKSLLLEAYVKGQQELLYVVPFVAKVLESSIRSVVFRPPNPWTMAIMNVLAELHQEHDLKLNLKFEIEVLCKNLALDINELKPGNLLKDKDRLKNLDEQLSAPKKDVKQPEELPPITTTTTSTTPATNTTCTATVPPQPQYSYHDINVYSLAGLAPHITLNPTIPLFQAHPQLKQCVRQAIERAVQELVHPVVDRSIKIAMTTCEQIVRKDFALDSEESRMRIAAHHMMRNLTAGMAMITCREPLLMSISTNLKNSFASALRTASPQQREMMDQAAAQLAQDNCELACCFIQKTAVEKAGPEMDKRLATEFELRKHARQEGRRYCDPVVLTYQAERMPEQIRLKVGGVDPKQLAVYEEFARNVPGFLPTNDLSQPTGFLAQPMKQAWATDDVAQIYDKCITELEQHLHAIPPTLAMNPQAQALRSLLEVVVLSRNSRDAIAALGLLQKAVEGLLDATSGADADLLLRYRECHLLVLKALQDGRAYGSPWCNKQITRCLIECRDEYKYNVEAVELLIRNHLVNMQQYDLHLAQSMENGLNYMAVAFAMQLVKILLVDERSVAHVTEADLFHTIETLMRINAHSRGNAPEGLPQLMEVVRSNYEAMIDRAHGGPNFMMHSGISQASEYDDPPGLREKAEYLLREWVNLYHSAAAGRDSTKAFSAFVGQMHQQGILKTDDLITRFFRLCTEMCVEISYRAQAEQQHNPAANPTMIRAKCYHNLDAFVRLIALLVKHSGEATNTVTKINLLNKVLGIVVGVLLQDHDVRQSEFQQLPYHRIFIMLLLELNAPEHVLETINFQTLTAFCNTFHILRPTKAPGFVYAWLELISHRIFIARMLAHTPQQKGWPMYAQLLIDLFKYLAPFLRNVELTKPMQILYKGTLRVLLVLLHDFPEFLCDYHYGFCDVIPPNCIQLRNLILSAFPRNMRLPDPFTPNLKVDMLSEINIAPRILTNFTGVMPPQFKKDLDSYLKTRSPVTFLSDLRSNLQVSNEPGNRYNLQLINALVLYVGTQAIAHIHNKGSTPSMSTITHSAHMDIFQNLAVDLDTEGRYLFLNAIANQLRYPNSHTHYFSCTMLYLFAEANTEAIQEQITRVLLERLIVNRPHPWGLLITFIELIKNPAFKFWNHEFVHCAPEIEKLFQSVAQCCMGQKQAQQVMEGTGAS
UniProt Q9C0C2: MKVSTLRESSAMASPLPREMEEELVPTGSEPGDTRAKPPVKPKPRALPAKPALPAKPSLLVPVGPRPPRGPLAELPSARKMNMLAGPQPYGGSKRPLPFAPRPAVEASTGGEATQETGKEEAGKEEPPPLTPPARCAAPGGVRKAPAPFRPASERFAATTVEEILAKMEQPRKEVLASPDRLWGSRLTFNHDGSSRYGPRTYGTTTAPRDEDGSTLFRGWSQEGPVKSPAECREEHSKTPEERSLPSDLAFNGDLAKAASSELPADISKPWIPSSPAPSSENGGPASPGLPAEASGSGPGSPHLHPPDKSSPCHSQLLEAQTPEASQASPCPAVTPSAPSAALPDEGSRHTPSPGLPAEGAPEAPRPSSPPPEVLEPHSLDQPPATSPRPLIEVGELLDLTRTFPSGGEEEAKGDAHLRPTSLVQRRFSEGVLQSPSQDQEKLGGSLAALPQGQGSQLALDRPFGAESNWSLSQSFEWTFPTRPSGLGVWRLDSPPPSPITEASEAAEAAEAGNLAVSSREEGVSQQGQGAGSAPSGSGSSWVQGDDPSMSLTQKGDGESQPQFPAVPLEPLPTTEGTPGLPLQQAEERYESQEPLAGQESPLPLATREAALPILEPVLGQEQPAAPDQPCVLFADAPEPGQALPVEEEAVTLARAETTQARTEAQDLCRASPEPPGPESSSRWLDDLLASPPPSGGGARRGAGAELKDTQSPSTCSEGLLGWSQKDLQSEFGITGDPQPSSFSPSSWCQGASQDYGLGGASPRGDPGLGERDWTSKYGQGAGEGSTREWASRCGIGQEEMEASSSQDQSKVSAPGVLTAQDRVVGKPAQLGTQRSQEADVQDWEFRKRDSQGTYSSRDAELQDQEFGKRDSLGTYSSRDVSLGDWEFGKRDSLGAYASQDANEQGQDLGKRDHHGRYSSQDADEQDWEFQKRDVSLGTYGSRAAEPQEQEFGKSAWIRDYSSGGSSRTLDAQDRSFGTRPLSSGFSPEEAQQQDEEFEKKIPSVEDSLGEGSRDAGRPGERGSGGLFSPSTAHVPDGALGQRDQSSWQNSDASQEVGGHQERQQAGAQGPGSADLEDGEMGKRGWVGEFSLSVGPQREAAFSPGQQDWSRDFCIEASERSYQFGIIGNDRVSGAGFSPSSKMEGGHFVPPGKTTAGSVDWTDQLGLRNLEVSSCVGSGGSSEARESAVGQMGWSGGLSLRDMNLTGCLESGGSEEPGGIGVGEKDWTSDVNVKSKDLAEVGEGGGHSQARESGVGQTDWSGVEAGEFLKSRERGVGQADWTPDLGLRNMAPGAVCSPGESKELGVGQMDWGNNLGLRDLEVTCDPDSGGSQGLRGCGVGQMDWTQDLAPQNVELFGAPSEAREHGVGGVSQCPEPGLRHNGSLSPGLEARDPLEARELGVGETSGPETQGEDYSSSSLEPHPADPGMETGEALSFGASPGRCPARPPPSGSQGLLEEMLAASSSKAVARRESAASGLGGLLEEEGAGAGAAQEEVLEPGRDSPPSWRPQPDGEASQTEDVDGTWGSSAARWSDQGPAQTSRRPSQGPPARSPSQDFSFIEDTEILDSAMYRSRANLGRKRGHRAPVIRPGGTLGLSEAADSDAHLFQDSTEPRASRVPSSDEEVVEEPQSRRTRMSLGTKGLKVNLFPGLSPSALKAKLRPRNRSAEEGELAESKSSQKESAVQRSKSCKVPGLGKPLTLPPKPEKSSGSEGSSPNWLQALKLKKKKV
UniProt P49736: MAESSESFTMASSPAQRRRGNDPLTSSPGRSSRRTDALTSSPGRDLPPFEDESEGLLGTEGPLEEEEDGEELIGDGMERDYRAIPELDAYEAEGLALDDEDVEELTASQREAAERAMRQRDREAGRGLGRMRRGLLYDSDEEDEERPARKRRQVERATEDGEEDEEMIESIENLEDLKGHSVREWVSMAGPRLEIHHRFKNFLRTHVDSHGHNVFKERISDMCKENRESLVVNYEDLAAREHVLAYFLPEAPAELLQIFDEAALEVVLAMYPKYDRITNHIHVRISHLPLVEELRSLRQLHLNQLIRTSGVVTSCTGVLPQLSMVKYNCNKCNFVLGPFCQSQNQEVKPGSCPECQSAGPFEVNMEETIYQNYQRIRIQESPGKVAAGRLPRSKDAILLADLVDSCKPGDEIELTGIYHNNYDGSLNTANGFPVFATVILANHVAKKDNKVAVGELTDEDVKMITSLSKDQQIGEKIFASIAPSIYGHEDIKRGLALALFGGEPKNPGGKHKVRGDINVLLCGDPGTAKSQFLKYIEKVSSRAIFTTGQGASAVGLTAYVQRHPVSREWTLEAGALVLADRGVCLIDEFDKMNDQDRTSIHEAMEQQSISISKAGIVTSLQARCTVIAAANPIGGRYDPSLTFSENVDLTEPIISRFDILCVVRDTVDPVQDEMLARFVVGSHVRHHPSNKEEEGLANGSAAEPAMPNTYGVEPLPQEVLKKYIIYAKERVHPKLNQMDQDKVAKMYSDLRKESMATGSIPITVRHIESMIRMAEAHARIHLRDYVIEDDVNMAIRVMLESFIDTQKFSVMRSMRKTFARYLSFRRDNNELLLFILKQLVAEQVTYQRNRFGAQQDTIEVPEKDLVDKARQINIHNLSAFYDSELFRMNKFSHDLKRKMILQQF

Test [1] has as its target CNOT1 (human (endogenous in HeLa)) (UniProt A5YKK6). The test can be described thus: co-IP; HeLa cell lysates in NETN buffer (0.15 M NaCl, 40 mM Tris, 5 mM EDTA, pH 7.4) incubated overnight with CNOT1, Tab182 or irrelevant (collagen V) antibody; Protein G-agarose beads; Western blot of the co-precipitated proteins; for ATR also lysates of cells with and without ATR inhibitor AZD6738 (2 uM, 2 h).

Test [2] addresses Tankyrase 1 Binding Protein 1 (human (endogenous in HeLa)) (UniProt Q9C0C2). Described as above.

These are yes or no findings as the source states them, for the method shown. In cells and extracts the contact can be indirect. Some binding calls cover weakened binding; strength is not graded here.

Consider “ATR (from UniProt Q13535 1-2644) (enzyme)”, for which the binding result in test [1] and in test [2] was “binds” throughout.
On to MCM2 (from UniProt P49736 1-904), for which the binding result in test [1] and in test [2] was “binds” each time.

B1: ORC3 (protein, UniProt Q9UBD5 1-711)
chain: MATSSMSKGCFVFKPNSKKRKISLPIEDYFNKGKNEPEDSKLRFETYQLIWQQMKSENERLQEELNKNLFDNLIEFLQKSHSGFQKNSRDLGGQIKLREIPTAALVLGVNVTDHDLTFGSLTEALQNNVTPYVVSLQAKDCPDMKHFLQKLISQLMDCCVDIKSKEEESVHVTQRKTHYSMDSLSSWYMTVTQKTDPKMLSKKRTTSSQWQSPPVVVILKDMESFATKVLQDFIIISSQHLHEFPLILIFGIATSPIIIHRLLPHAVSSLLCIELFQSLSCKEHLTTVLDKLLLTTQFPFKINEKVLQVLTNIFLYHDFSVQNFIKGLQLSLLEHFYSQPLSVLCCNLPEAKRRINFLSNNQCENIRRLPSFRRYVEKQASEKQVALLTNERYLKEETQLLLENLHVYHMNYFLVLRCLHKFTSSLPKYPLGRQIRELYCTCLEKNIWDSEEYASVLQLLRMLAKDELMTILEKCFKVFKSYCENHLGSTAKRIEEFLAQFQSLDETKEEEDASGSQPKGLQKTDLYHLQKSLLEMKELRRSKKQTKFEVLRENVVNFIDCLVREYLLPPETQPLHEVVYFSAAHALREHLNAAPRIALHTALNNPYYYLKNEALKSEEGCIPNIAPDICIAYKLHLECSRLINLVDWSEAFATVVTAAEKMDANSATSEEMNEIIHARFIRAVSELELLGFIKPTKQKTDHVARLTWGGC
As to B1, the binding result in test [1] and in test [2] was “binds” throughout.
